Measured values: PubChem BioAssay AID540276 (National Center for Advancing Translational Sciences (NCATS), 2011)
The campaign covered roughly 300,000 compounds. About 5,400 (1.8%) were called active. The shares of active, inactive and inconclusive entries below differ from those in the screen. Calls come from the whole dose curve; tested in HEK293 cells. A potency beside an inconclusive call is a rough fit, not a confirmed value.

assay: qHTS for inhibitors of binding or entry into cells for Marburg Virus; details: Marburg virus pseudotyped entry inhibition, cell reporter; activity change, negative = inhibition: at 37.8 µM (top of the series) unless noted
% is set by controls: 0 for no effect and ±100 for the full control effect; potency is the fitted concentration of half-maximal effect.

SMILES | Potency | activity change, negative = inhibition
CN(C)C1(CNC(=O)Nc2ccc(Cl)c(Cl)c2)CCCCC1 | inconclusive: 8.91 µM [inhibitor, partial curve, poor fit] | –
CCn1c(SCC(=O)Nc2ccc(F)cc2)nnc1C1CC1 | inconclusive: 20 µM [activator, single point] | –
COc1ccc2c(c1)CCc1c(C(=O)Nc3cc(C)n(Cc4ccc(Cl)cc4)n3)noc1-2 | – | inactive: -3.12%
C=CCc1c(C)nc2c(C)cccc2c1SC(=N)N | inconclusive: 15.8 µM [inhibitor, partial curve, poor fit] | –
O=C(/C=C/N1CCOCC1)c1coc2ccccc12 | inconclusive: 1.58 µM [inhibitor, partial curve, poor fit] | –
COC(=O)NC(c1ccccc1)C1(C(=O)OC)C(=O)Cc2ccccc21 (stereo unspecified) | inactive | –
Nc1ccc(OC(=O)Nc2ccc(O)cc2)cc1 | inconclusive: 0.1 µM [inhibitor, full curve, poor fit] | –
CC1(C)CC(=O)C2=C(C1)Nc1cc3c(cc1C2c1ccc(F)cc1)OCO3 (stereo unspecified) | inconclusive: 22.4 µM [inhibitor, single point] | –
OCCC1CN(Cc2ccc3cc(Cl)ccc3n2)CCN1Cc1ccsc1 (stereo unspecified) | inconclusive: 11.2 µM [inhibitor, single point] | –
Cc1cc(=O)oc2cc(OCC(O)CN3CCc4ccccc4C3)ccc12 (stereo unspecified) | inconclusive: 10 µM [inhibitor, partial curve, poor fit] | –
CC1CCN(S(=O)(=O)c2ccc3c(c2)CCN3C(=O)CCC(=O)O)CC1 | inconclusive: 0.92 µM [activator, single point] | –
Cc1ccc(S(=O)(=O)NC(C(=O)Oc2ccc3c(C(F)(F)F)cc(=O)oc3c2)c2ccccc2)cc1 (stereo unspecified) | inconclusive: 12.6 µM [activator, single point] | –
COc1ccc(C(=O)Nc2ccc(SC(F)F)cc2)cc1 | inconclusive: 0.316 µM [activator, partial curve, poor fit] | –
CC1=C(C(=O)Nc2ccccc2)C(c2ccncc2)C(C#N)=C(SCC(=O)NC(C)C)N1 (stereo unspecified) | inconclusive: 1.3 µM [activator, partial curve, poor fit] | –
COc1cc(CN=Cc2c(O)n(C(C)(C)C)c(=O)[nH]c2=O)cc(OC)c1 | inconclusive: 2.24 µM [inhibitor, partial curve, poor fit] | –
Cc1ccc(OCC(=O)N2CCN(c3nnc(-c4ccccc4)c4ccccc34)CC2)cc1 | inconclusive: 20.6 µM [inhibitor, single point] | –
CNS(=O)(=O)c1ccc(NC(=O)c2ccccn2)cc1 | inconclusive: 7.08 µM [inhibitor, partial curve] | –
Cc1nn(-c2ccccc2)c(C)c1/C=N/NC(=O)c1cc(-c2cccs2)[nH]n1 | inconclusive: 0.651 µM [inhibitor, partial curve, poor fit] | –
C=CCn1c(=O)c(C(=O)NC2CC2)c(O)c2cc(OC)c(OC)cc21 | inconclusive: 6.31 µM [activator, single point] | –
CCOC(=O)N/N=C/c1ccc(OCCSc2ccc(Cl)cc2)c(OC)c1 | – | inactive: -26.6%
O=C(NCCN1CCOCC1)c1ccc(Cl)cc1O | inconclusive: 15.8 µM [activator, single point] | –
COC(=O)c1ccc(COC(=O)c2cnc(Cl)c(Cl)c2)cc1 | inconclusive: 15.8 µM [activator, single point] | –

SMILES | Potency | activity change, negative = inhibition
Cc1oc(-c2ccccc2F)nc1CS(=O)CC(=O)NCc1ccc(Cl)cc1 (stereo unspecified) | inconclusive: 1.41 µM [inhibitor, single point] | –
CC(C)c1onc(C(=O)N2CCN(C(c3ccccc3)c3ccccc3)CC2)c1[N+](=O)[O-] | – | inactive: -2.24%
Cc1ccc(CN2CC(C(=O)Nc3ccc(S(=O)(=O)N4CCCCC4)cc3)CC2=O)cc1 (stereo unspecified) | – | inactive: -25.4%
COP(=O)(OC)c1ccc(NCc2cc(O)ccc2O)cc1 | active: 4.47 µM | –
CCn1c(C(=O)NCc2cccc(Br)c2)cc2oc3ccccc3c21 | inconclusive: 2.82 µM [inhibitor, full curve, poor fit] | –
C/C(=N\NC(=O)c1nc2ccccn2c1C)c1ccc2c(c1)OCO2 | inconclusive: 7.94 µM [activator, partial curve, poor fit] | –
O=C1CC(c2cccs2)c2cc3c(cc2N1)OCCO3 (stereo unspecified) | inconclusive: 11.6 µM [inhibitor, partial curve, poor fit] | –
CC(NC(=O)CNC(=O)OCc1ccccc1)C(=O)N1CC(O)CC1C(=O)OCc1ccccc1 (stereo unspecified) | inactive | –
Cc1ccccc1OCC(=O)OCC(=O)Nc1ccc2c(c1)OCO2 | – | inactive: -4.89%
c1ccc(CSc2nnc(-c3cccs3)o2)cc1 | inconclusive: 4.11 µM [activator, single point] | –
COc1cc(C(=O)Nc2nnc(SCC(=O)NCC3CCCO3)s2)cc(OC)c1OC (stereo unspecified) | – | inactive: -14.5%
CCn1c(=O)cc(SCC(=O)Nc2ccc3c(c2)OCO3)c2ccccc21 | – | inactive: -2.79%
CCc1ccc(-c2nc3ccc(Br)cc3c(C(=O)O)c2C)s1 | inconclusive: 35.5 µM [inhibitor, single point] | –
CCc1cccc(C)c1NC(=O)c1cccc(N(C)C)c1 | inconclusive: 14.1 µM [inhibitor, partial curve, poor fit] | –
O=C(NC(=S)Nc1cc(C(F)(F)F)ccc1Cl)c1ccccc1 | inconclusive: 6.31 µM [activator, full curve, poor fit] | –
COc1cc(/C=C/C(=O)c2ccc(Cl)s2)cc(OC)c1O | inconclusive: 13 µM [inhibitor, partial curve, poor fit] | –
CCN(CC)S(=O)(=O)c1ccc(C(=O)Nc2nnc(NC(=S)Nc3ccccc3)s2)cc1 | inconclusive: 35.5 µM [inhibitor, single point] | –
Cc1ccc(Nc2nc(NCCCN3CCOCC3)nc(N)c2[N+](=O)[O-])cc1C | – | inactive: -29.1%
O=[N+]([O-])c1cccc(S(=O)(=O)NCCCN2CCOCC2)c1 | inconclusive: 0.158 µM [activator, full curve, poor fit] | –
COc1ccc(OC)c(NC(=O)c2cccc(N3C(=O)C4C5CCC(C5)C4C3=O)c2)c1 (stereo unspecified) | inconclusive: 10 µM [inhibitor, partial curve, poor fit] | –
CCCCN(S(=O)(=O)c1ccccc1)S(=O)(=O)c1ccccc1 | inconclusive: 15.8 µM [inhibitor, partial curve, poor fit] | –
O=C(Nc1ccc2nc(-c3ccccn3)[nH]c2c1)C1CCCCC1 | – | inactive: 3.72%

SMILES | Potency | activity change, negative = inhibition
COc1ccccc1CCNC(=O)Nc1cccc([N+](=O)[O-])c1 | inconclusive: 22.4 µM [inhibitor, single point] | –
O=C1CCCCC1(O)Cc1ccc2c(c1)OCO2 (stereo unspecified) | – | inactive: 4.04% [at 46.1 µM]
O=C(CN1CCc2ccccc2C1)Nc1cccc(S(=O)(=O)N2CCOCC2)c1 | – | inactive: -29.4%
COc1ccc(CCC(=O)NCCOc2ccc(Cl)cc2)cc1 | – | inactive: 3.61%
CC(C)(C)NC(=O)COC(=O)c1ccc(Cl)c(S(N)(=O)=O)c1 | inconclusive: 35.5 µM [activator, single point] | –
CC1CCc2sc(C(=O)NCc3ccccn3)cc2C1 (stereo unspecified) | inconclusive: 2.82 µM [activator, full curve] | –
COc1ccc(NC(=O)c2cccs2)cc1C(=O)N1CCN(c2ccccc2)CC1 | inconclusive: 35.5 µM [inhibitor, single point] | –
CCOC(=O)c1[nH]c2ccccc2c1CCCN1C(=O)c2ccccc2C1=O | – | inactive: -3.21%
O=C(NC(=S)NNC(=O)c1ccccc1O)c1cccs1 | inconclusive: 29.1 µM [inhibitor, single point] | –
Cc1cc(C)cc(NC(=O)c2ccc(NC(=O)c3ccco3)cc2)c1 | inconclusive: 25.1 µM [inhibitor, single point] | –
Cc1cc(-c2ccco2)n2c(nc3ccccc32)c1C#N | – | inactive: -0.311%
CN(CC(=O)Nc1ccc2c(c1)OCCO2)S(=O)(=O)c1ccc(F)cc1 | inconclusive: 10 µM [activator, partial curve] | –
COc1cc2nc(SCC(=O)NCc3ccco3)n(Cc3ccc(Cl)cc3)c(=O)c2cc1OC | inconclusive: 13 µM [inhibitor, partial curve, poor fit] | –
Cc1ccc(OCC(=O)NCC2(N3CCN(C)CC3)CCCCC2)cc1C | inconclusive: 35.5 µM [inhibitor, single point] | –
CN(C)c1cccc(C(=O)N/N=C/c2ccccc2F)c1 | inconclusive: 3.55 µM [inhibitor, partial curve, poor fit] | –
CC(C)CCNC(=O)c1c(N)n(CC2CCCO2)c2nc3ccccc3nc12 (stereo unspecified) | inconclusive: 1.03 µM [inhibitor, full curve, poor fit] | –
Cn1nnc2c(NCc3ccco3)nccc21 | – | inactive: 1.41%
CC(C)(C)c1ccc(C(=O)N2CCN(C(=O)c3cccs3)CC2)cc1 | inconclusive: 35.5 µM [inhibitor, partial curve, poor fit] | –
Cc1cccn2c(=O)c3cc(C(=O)NC(C)c4ccccc4)c(=N)n(CCCn4ccnc4)c3nc12 (stereo unspecified) | active: 4.47 µM | –
O=C1NC(=NCc2ccccc2)S/C1=C/c1ccc(O)cc1 | inconclusive: 29.1 µM [inhibitor, single point] | –
CCn1c2ccccc2c2cc(NC(=O)CSc3nnc(-c4ccc(OC)c(OC)c4)n3N)ccc21 | inconclusive: 0.073 µM [inhibitor, full curve, poor fit] | –
COc1ccc(C(=O)N(C)C2CCCN(Cc3ccccc3F)C2)cc1C (stereo unspecified) | inconclusive: 22.4 µM [inhibitor, partial curve, poor fit] | –

Some of the entries so far, with tabs.
SMILES	Potency	activity change, negative = inhibition
O=C(CN1CCc2ccccc2C1)Nc1cccc(S(=O)(=O)N2CCOCC2)c1	–	inactive: -29.4%
COc1ccc(CCC(=O)NCCOc2ccc(Cl)cc2)cc1	–	inactive: 3.61%
CC(C)(C)NC(=O)COC(=O)c1ccc(Cl)c(S(N)(=O)=O)c1	inconclusive: 35.5 µM [activator, single point]	–
CC1CCc2sc(C(=O)NCc3ccccn3)cc2C1 (stereo unspecified)	inconclusive: 2.82 µM [activator, full curve]	–
COc1ccc(NC(=O)c2cccs2)cc1C(=O)N1CCN(c2ccccc2)CC1	inconclusive: 35.5 µM [inhibitor, single point]	–
CCOC(=O)c1[nH]c2ccccc2c1CCCN1C(=O)c2ccccc2C1=O	–	inactive: -3.21%
O=C(NC(=S)NNC(=O)c1ccccc1O)c1cccs1	inconclusive: 29.1 µM [inhibitor, single point]	–
Cc1cc(C)cc(NC(=O)c2ccc(NC(=O)c3ccco3)cc2)c1	inconclusive: 25.1 µM [inhibitor, single point]	–
Cc1cc(-c2ccco2)n2c(nc3ccccc32)c1C#N	–	inactive: -0.311%
CN(CC(=O)Nc1ccc2c(c1)OCCO2)S(=O)(=O)c1ccc(F)cc1	inconclusive: 10 µM [activator, partial curve]	–
COc1cc2nc(SCC(=O)NCc3ccco3)n(Cc3ccc(Cl)cc3)c(=O)c2cc1OC	inconclusive: 13 µM [inhibitor, partial curve, poor fit]	–
Cc1ccc(OCC(=O)NCC2(N3CCN(C)CC3)CCCCC2)cc1C	inconclusive: 35.5 µM [inhibitor, single point]	–
CN(C)c1cccc(C(=O)N/N=C/c2ccccc2F)c1	inconclusive: 3.55 µM [inhibitor, partial curve, poor fit]	–
CC(C)CCNC(=O)c1c(N)n(CC2CCCO2)c2nc3ccccc3nc12 (stereo unspecified)	inconclusive: 1.03 µM [inhibitor, full curve, poor fit]	–
Cn1nnc2c(NCc3ccco3)nccc21	–	inactive: 1.41%
CC(C)(C)c1ccc(C(=O)N2CCN(C(=O)c3cccs3)CC2)cc1	inconclusive: 35.5 µM [inhibitor, partial curve, poor fit]	–
Cc1cccn2c(=O)c3cc(C(=O)NC(C)c4ccccc4)c(=N)n(CCCn4ccnc4)c3nc12 (stereo unspecified)	active: 4.47 µM	–
